{"source": "PubChem BioAssay AID1259314 (Drosophila RNAi Screening Center, 2017)", "assay": "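Transmembrane protein genes affecting ATP after manganese overload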 (primary screen)", "cells": "Drosophila S2R+ cells", "reagents": "long dsRNA against Drosophila genes", "time to read-out": "5 days (4 days knock-down, then 1 day metal exposure)", "conditions": "manganese chloride added to 15 mM for 24 hours", "detection": "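Luciferase ATP signal used as a proxy for viable cell number, reported as one averaged z-score per dsRNA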", "scale": "mean ATP z-score: higher = more ATP than the plate average, more viable cells under manganese", "rule for the call": "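a mean ATP z-score past 1.5 in either direction is called active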", "meaning of the calls": "active = strong ATP change, up or down; inactive = no strong ATP change", "note": "Shown is an unselected part of about 3,100 deposited reagents. 289 of all reagents (9.3%) were called active. 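Active includes both higher and lower ATP than plate average; check the z-score sign for direction.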 The record does not give: the amount of reagent."}
{"gene": "Pen (Pendulin)", "DRSC id": "DRSC03396", "mean ATP z-score": -0.25, "outcome": "inactive"}
{"gene": "Pen (Pendulin)", "DRSC id": "DRSC39160", "mean ATP z-score": 0.542, "outcome": "inactive"}
{"gene": "CG14232", "DRSC id": "DRSC19588", "mean ATP z-score": -1.1, "outcome": "inactive"}
{"gene": "CG14232", "DRSC id": "DRSC27714", "mean ATP z-score": 0.147, "outcome": "inactive"}
{"gene": "Or30a (Odorant receptor 30a)", "DRSC id": "DRSC03385", "mean ATP z-score": 3.08, "outcome": "active"}
{"gene": "Or30a (Odorant receptor 30a)", "DRSC id": "DRSC39556", "mean ATP z-score": 0.467, "outcome": "inactive"}
{"gene": "Or43b (Odorant receptor 43b)", "DRSC id": "DRSC07486", "mean ATP z-score": -0.734, "outcome": "inactive"}
{"gene": "Or43b (Odorant receptor 43b)", "DRSC id": "DRSC29565", "mean ATP z-score": 0.589, "outcome": "inactive"}
{"gene": "Gr66a (Gustatory receptor 66a)", "DRSC id": "DRSC10783", "mean ATP z-score": -0.92, "outcome": "inactive"}
{"gene": "Gr66a (Gustatory receptor 66a)", "DRSC id": "DRSC39878", "mean ATP z-score": 0.746, "outcome": "inactive"}
{"gene": "CG31793", "DRSC id": "DRSC02605", "mean ATP z-score": 0.717, "outcome": "inactive"}
{"gene": "CG31793", "DRSC id": "DRSC24308", "mean ATP z-score": -0.921, "outcome": "inactive"}
{"gene": "glec (gliolectin)", "DRSC id": "DRSC16958", "mean ATP z-score": -0.847, "outcome": "inactive"}
{"gene": "glec (gliolectin)", "DRSC id": "DRSC25314", "mean ATP z-score": -1.4, "outcome": "inactive"}
{"gene": "ppk29 (pickpocket 29)", "DRSC id": "DRSC04205", "mean ATP z-score": 2.06, "outcome": "active"}
{"gene": "ppk29 (pickpocket 29)", "DRSC id": "DRSC39599", "mean ATP z-score": 0.34, "outcome": "inactive"}
{"gene": "CG9825", "DRSC id": "DRSC04569", "mean ATP z-score": -0.277, "outcome": "inactive"}
{"gene": "CG9825", "DRSC id": "DRSC25634", "mean ATP z-score": 0.0527, "outcome": "inactive"}
{"gene": "Eglp1 (Entomoglyceroporin 1)", "DRSC id": "DRSC04502", "mean ATP z-score": -1.27, "outcome": "inactive"}
{"gene": "Ir41a (Ionotropic receptor 41a)", "DRSC id": "DRSC04730", "mean ATP z-score": 0.0319, "outcome": "inactive"}
{"gene": "Ir41a (Ionotropic receptor 41a)", "DRSC id": "DRSC04875", "mean ATP z-score": -0.0432, "outcome": "inactive"}
{"gene": "CG7497", "DRSC id": "DRSC28188", "mean ATP z-score": -0.571, "outcome": "inactive"}
{"gene": "CG7497", "DRSC id": "DRSC37068", "mean ATP z-score": -0.126, "outcome": "inactive"}
{"gene": "Nrk (Neurospecific receptor kinase)", "DRSC id": "DRSC07480", "mean ATP z-score": -1.28, "outcome": "inactive"}
{"gene": "Nrk (Neurospecific receptor kinase)", "DRSC id": "DRSC36725", "mean ATP z-score": 0.398, "outcome": "inactive"}
{"gene": "Nrk (Neurospecific receptor kinase)", "DRSC id": "DRSC36726", "mean ATP z-score": 0.438, "outcome": "inactive"}
{"gene": "Ndc1 (Nuclear division cycle 1)", "DRSC id": "DRSC15895", "mean ATP z-score": -0.129, "outcome": "inactive"}
{"gene": "Ndc1 (Nuclear division cycle 1)", "DRSC id": "DRSC39536", "mean ATP z-score": 0.113, "outcome": "inactive"}
{"gene": "CG8534", "DRSC id": "DRSC16439", "mean ATP z-score": 1.27, "outcome": "inactive"}
{"gene": "Or42a (Odorant receptor 42a)", "DRSC id": "DRSC04912", "mean ATP z-score": -0.261, "outcome": "inactive"}

A portion of the results above, for reference:
{"gene": "CG14232", "DRSC id": "DRSC27714", "mean ATP z-score": 0.147, "outcome": "inactive"}
{"gene": "Or30a (Odorant receptor 30a)", "DRSC id": "DRSC03385", "mean ATP z-score": 3.08, "outcome": "active"}
{"gene": "Or30a (Odorant receptor 30a)", "DRSC id": "DRSC39556", "mean ATP z-score": 0.467, "outcome": "inactive"}
{"gene": "Or43b (Odorant receptor 43b)", "DRSC id": "DRSC07486", "mean ATP z-score": -0.734, "outcome": "inactive"}
{"gene": "Or43b (Odorant receptor 43b)", "DRSC id": "DRSC29565", "mean ATP z-score": 0.589, "outcome": "inactive"}
{"gene": "Gr66a (Gustatory receptor 66a)", "DRSC id": "DRSC10783", "mean ATP z-score": -0.92, "outcome": "inactive"}
{"gene": "Gr66a (Gustatory receptor 66a)", "DRSC id": "DRSC39878", "mean ATP z-score": 0.746, "outcome": "inactive"}
{"gene": "CG31793", "DRSC id": "DRSC02605", "mean ATP z-score": 0.717, "outcome": "inactive"}

Next results follow.
{"gene": "rasp", "DRSC id": "DRSC08191", "mean ATP z-score": -0.685, "outcome": "inactive"}
{"gene": "rasp", "DRSC id": "DRSC39831", "mean ATP z-score": -0.986, "outcome": "inactive"}
{"gene": "Or71a (Odorant receptor 71a)", "DRSC id": "DRSC11244", "mean ATP z-score": -0.783, "outcome": "inactive"}
{"gene": "Or71a (Odorant receptor 71a)", "DRSC id": "DRSC39566", "mean ATP z-score": 0.614, "outcome": "inactive"}
{"gene": "fz3 (frizzled 3)", "DRSC id": "DRSC18779", "mean ATP z-score": 0.0601, "outcome": "inactive"}
{"gene": "fz3 (frizzled 3)", "DRSC id": "DRSC29682", "mean ATP z-score": 2.05, "outcome": "active"}
{"gene": "Lcch3 (Ligand-gated chloride channel homolog 3)", "DRSC id": "DRSC22175", "mean ATP z-score": -0.29, "outcome": "inactive"}
{"gene": "CG30340", "DRSC id": "DRSC05167", "mean ATP z-score": -0.31, "outcome": "inactive"}
{"gene": "Gr10b (Gustatory receptor 10b)", "DRSC id": "DRSC19477", "mean ATP z-score": -0.889, "outcome": "inactive"}
{"gene": "Gr10b (Gustatory receptor 10b)", "DRSC id": "DRSC28702", "mean ATP z-score": 1.14, "outcome": "inactive"}
{"gene": "CG32447", "DRSC id": "DRSC11732", "mean ATP z-score": -0.881, "outcome": "inactive"}
{"gene": "CG32447", "DRSC id": "DRSC11805", "mean ATP z-score": -0.554, "outcome": "inactive"}
{"gene": "mGluR (metabotropic Glutamate Receptor)", "DRSC id": "DRSC17215", "mean ATP z-score": 0.57, "outcome": "inactive"}
{"gene": "mGluR (metabotropic Glutamate Receptor)", "DRSC id": "DRSC39626", "mean ATP z-score": 0.432, "outcome": "inactive"}
{"gene": "ATPsynC (ATP synthase, subunit C)", "DRSC id": "DRSC15236", "mean ATP z-score": -2.38, "outcome": "active"}
{"gene": "ATPsynC (ATP synthase, subunit C)", "DRSC id": "DRSC39449", "mean ATP z-score": -0.477, "outcome": "inactive"}
{"gene": "Shaw (Shaker cognate w)", "DRSC id": "DRSC00433", "mean ATP z-score": 2.86, "outcome": "active"}
{"gene": "Shaw (Shaker cognate w)", "DRSC id": "DRSC00788", "mean ATP z-score": 0.453, "outcome": "inactive"}
{"gene": "Shaw (Shaker cognate w)", "DRSC id": "DRSC21368", "mean ATP z-score": 0.96, "outcome": "inactive"}
